# Data reported in article PMC12431657, “Discovery and mechanistic insights of dibenzoylmethane as a broad spectrum inhibitor of coronavirus” (PLOS Pathogens, 2025).
# Structures can show the parent of a compound that is named as a salt. Where two headings read alike, the source gives them in different places. Screen size: about 3,300 compounds; about 95 (3%) showed an effect of 50% or more. This is one part of the list.
# Tested on: HCoV-229E
# Set-up: species or system Huh-7; HTS, protection from HCoV-229E induced cell death, luminescent cell viability (CellCounting-Lite 2.0), inhibition rate
Compound,"229E Inhibition rate (24 h, 10 µM; inhibitor)","229E Inhibition rate (24 h, 10 µM, inhibitor)"
C[C@]12CC[C@@H](O)C[C@H]1CC[C@@H]1[C@@H]2CC[C@]2(C)C(=O)CC[C@@H]12 [Etiocholanolone],13.1%,
C[C@]12CC[C@H](O)C[C@H]1CC[C@@H]1[C@@H]2C(=O)[C@H](O)[C@]2(C)[C@@H](c3ccc(=O)oc3)CC[C@]12O [Pseudobufarenogin],45.8%,
NC(=O)[C@H](Cc1ccccc1)NC(=O)[C@H](Cc1c[nH]c2ccccc12)NC(=O)[C@@H]1CCCN1C(=O)[C@@H](N)Cc1ccc(O)cc1 [Endomorphin 1],9.1%,
CC1=CC(=O)[C@@H](O)[C@]2(C)[C@H]3[C@@H](O)[C@H](O)[C@]4(CO)OC[C@@]35[C@@H](C[C@@H]12)OC(=O)[C@H](O)[C@]54O [Yadanziolide A],15.8%,
COc1c(O)cc2c3c1-c1ccccc1C[C@H]3N(C)CC2 [O-Nornuciferine],18.9%,
COC1=CC(=O)O[C@@H](/C=C/c2ccccc2)C1 [(+)-Kavain],,9.8%
COc1cc(OC)c(OC)cc1C=O [Asaraldehyde],16.7%,
C=Cc1cc(O)cc2ccc3c(C)c(O)ccc3c12 [Dehydroeffusol],44.2%,
COC1=CC(=O)O[C@@H](/C=C/c2ccccc2)C1 [Kavain],,39.7%
COC[C@]12CN(C)C3[C@@H]4[C@H](OC)[C@H]1[C@@]3([C@@H](OC)C[C@H]2O)[C@@H]1C[C@@]2(O)[C@H](OC(=O)c3ccccc3)[C@@H]1[C@]4(O)[C@@H](O)[C@@H]2OC [Benzoylmesaconine],10.7%,
CC(=O)/C=C/c1ccccc1 [Benzylideneacetone],,20.1%
CC(C)[C@@H]1[C@H]2OC(=O)[C@@H]1[C@@H]1CC[C@@H]3CN(C)[C@H]2[C@@]31C [Dendrobine],0%,
CC(C)(C)[C@]1(O)C[C@@H]2OC(=O)C[C@@]23C(=O)O[C@@H]2OC(=O)[C@H](O)[C@]213 [Bilobalide],54.8%,
C[C@H](O)c1ccccc1 [(S)-(-)-Phenylethanol],8.9,
COc1cc2c(cc1O)C[C@@H]1NCCc3cc(O)c(OC)c-2c31 [Laurolitsine (hydrochloride)],13.8%,
CN1[C@@H]2CC[C@H]1CC(O)C2 (stereo partly drawn) [Tropine],8.6%,
NC(=O)Cc1ccccc1 [2-Phenylacetamide],20.1%,
CCCCOC(=O)c1ccccc1C(=O)OCC(C)C [Butyl isobutyl phthalate],7.7%,

Compound,"229E Inhibition rate (24 h, 10 µM; inhibitor)","229E Inhibition rate (24 h, 10 µM, inhibitor)"
CCN1C[C@]2(COC)[C@H](O)C[C@H](OC)[C@@]34[C@@H]5C[C@@]6(O)[C@H](OC(=O)c7ccccc7)[C@@H]5[C@@](O)([C@@H]([C@H](OC)[C@H]23)[C@@H]14)[C@@H](O)[C@@H]6OC [Benzoylaconine],0%,
CCCCCc1cc(O)cc(O)c1 [Olivetol],12.2%,
CCN1C[C@]2(COC)[C@H](O)C[C@H](OC)[C@]34C1[C@H]([C@H](OC)[C@H]23)[C@]1(O)[C@H]2[C@@H](O)[C@](O)(C[C@H]24)[C@@H](OC)[C@@H]1O [Aconine],36%,
O=C1C=CC(=O)c2c(O)ccc(O)c21 [Naphthazarin],5.6%,
COC(=O)[C@]12OC[C@]34[C@H]([C@@H](O)[C@@H]1O)[C@@]1(C)CC(=O)C(O)=C(C)[C@@H]1C[C@H]3OC(=O)[C@H](OC(=O)/C=C(\C)C(C)(C)OC(C)=O)[C@@H]24 [Bruceantinol],0%,
C[C@]12CC[C@H](O)C[C@H]1CC[C@@H]1[C@@H]2[C@H](O)C(=O)[C@]2(C)[C@@H](c3ccc(=O)oc3)CC[C@]12O [Arenobufagin],0%,
C[C@H]1CC[C@@H]2N(C1)C[C@H]1[C@@H]3C[C@H]4[C@@H](C[C@H](O)[C@H]5C[C@@H](O)CC[C@@]54C)[C@@H]3CC[C@@H]1[C@]2(C)O [Peimine],26.7%,
COC[C@]12CN(C)[C@@H]3[C@@H]4[C@H](OC)[C@H]1[C@@]3([C@@H](OC)C[C@H]2O)[C@@H]1C[C@@]2(O)[C@H](OC(=O)c3ccccc3)[C@@H]1[C@]4(OC(C)=O)[C@@H](O)[C@@H]2OC [Mesaconitine],6.2%,
CCCCC/C=C/C/C=C/CCCCCCCC(=O)O[C@H](COC(=O)CCCCCCCCCCCCCCC)COP(=O)([O-])OCC[N+](C)(C)C [Lecithin],5.1,
CO[C@@H]1C[C@H](O[C@H]2CC[C@@]3(C)[C@H](CC[C@@]45O[C@@]46CC[C@H](C4=CC(=O)OC4)[C@@]6(C)CC[C@H]35)C2)O[C@H](C)[C@@H]1O [Adynerin],9.5%,
O=C(O)CC[N+](=O)[O-] [3-Nitropropanoic acid],36.6%,
COC(=O)C[C@](O)(CCC(C)(C)O)C(=O)O[C@@H]1C(OC)=C[C@]23CCCN2CCc2cc4c(cc2[C@H]13)OCO4 [Harringtonine],14.4%,
O=[N+]([O-])c1ncc[nH]1 [Azomycin],0%,
CCN1C[C@]2(COC)CC[C@H](OC)[C@]34C1[C@H]([C@H](OC)[C@H]23)[C@@]1(OC(C)=O)C[C@H](OC)[C@@]2(O)C[C@@H]4[C@@H]1[C@H]2OC(=O)c1ccc(OC)cc1 [Crassicauline A],19.4%,
COc1cc([C@@H]2c3cc4c(cc3C(=O)[C@H]3COC(=O)[C@H]23)OCO4)cc(OC)c1OC [Podophyllotoxone],10.4%,
C=C1C/C(=C/C)C(=O)O[C@@H]2CCN3CC=C(COC(=O)[C@]1(C)O)[C@H]23 [Seneciphylline],7.3,
O=C(C[C@@H]1NCCC[C@H]1O)Cn1cnc2ccccc2c1=O [Febrifugine],27.1%,
COC[C@@]12CC[C@H](OC)[C@]34C([C@H]([C@H](OC)[C@H]13)[C@]1(O)[C@H]3[C@@H](OC(=O)c5ccccc5)[C@](O)(C[C@H]34)[C@@H](OC)[C@@H]1O)N(C)C2 [Benzoylhypaconine],7.7%,

# 2 successive records already listed:
Compound,"229E Inhibition rate (24 h, 10 µM; inhibitor)","229E Inhibition rate (24 h, 10 µM, inhibitor)"
O=[N+]([O-])c1ncc[nH]1 [Azomycin],0%,
CCN1C[C@]2(COC)CC[C@H](OC)[C@]34C1[C@H]([C@H](OC)[C@H]23)[C@@]1(OC(C)=O)C[C@H](OC)[C@@]2(O)C[C@@H]4[C@@H]1[C@H]2OC(=O)c1ccc(OC)cc1 [Crassicauline A],19.4%,
